Test results reported in PubChem BioAssay AID2685 (National Center for Advancing Translational Sciences (NCATS), 2010).
The other results are listed elsewhere or left out. Shown are side measurements of this screen, not its main read-out; they come without a call. Compounds called inactive in the main read-out are mostly missing here. Potencies come from curve fits of mixed quality, noted in brackets.

Experiment: qHTS Assay for Lipid Storage Modulators in Drosophila S3 Cells;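 for cell number change: cells counted by Cell Tracker Red CMTPX staining in the red channel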
Conditions: BODIPY lipid droplet fluorescence, 18-24 h; for cell number change: measured here: cell count max response, cells fed with added oleic acid
Outline: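 Drosophila S3 cells got compounds at several concentrations plus oleic acid (400 uM solution). Laser-scanning cytometry with 488 nm excitation read lipid droplets at 500-530 nm and cells at 575-640 nm. Percent activity was relative to 20 uM Triacsin C.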

[1] = measured here: cell number channel AC50, cells fed with added oleic acid
[2] = measured here: lipid fluorescence (Fed channel) AC50, cells fed with added oleic acid

Row | SMILES | AC50 [1] | AC50 [2] | cell number change [%]
1 | CCc1cccc2c(C(=O)Cn3nnc(-c4ccc(OC)c(OC)c4)n3)c[nH]c12 | 0.103 µM [rising, full curve] | 0.58 µM [rising, single point] | –
2 | CCN(CC)CCNC(=O)c1cc(-c2ccco2)nc2ccccc12 | – | 32.6 µM [falling, partial curve, poor fit] | -29.3
3 | O=C(CSc1nc2[nH]ncc2c(=O)[nH]1)Nc1ccccc1F | 8.2 µM [rising, partial curve, poor fit] | – | 32
4 | COCCCNc1nc(=S)[nH]c2cc(OC)c(OC)cc12 | 20.6 µM [falling, single point] | 0.00461 µM [falling, full curve, poor fit] | -34.2
5 | CSc1ccccc1NC(=O)c1cnc2scc(C)n2c1=O | 18.4 µM [rising, single point] | – | 126
6 | CCOc1ccc(CCNC(=O)COC(=O)c2nc(Cl)ccc2Cl)cc1OCC | – | 25.9 µM [falling, single point] | -17
7 | NC(=S)NNC(=O)c1cccc(Br)c1 | – | 4.11 µM [rising, full curve, poor fit] | –
8 | COc1ccc(CNc2nnnn2C)c(OC)c1 | – | 6.51 µM [falling, single point] | –
9 | CCc1ccccc1NC(=O)c1cc([N+](=O)[O-])ccc1N1CCOCC1 | – | – | -17.9
10 | Cc1nnc(NC(=O)CSc2nnc3c(n2)[nH]c2ccc(Br)cc23)s1 | – | 6.51 µM [rising, single point] | 12.4
11 | CC(OC(=O)C1=COCCO1)C(=O)Nc1ccc(Cl)cn1 (stereo unspecified) | 6.51 µM [falling, partial curve, poor fit] | 7.31 µM [falling, partial curve, poor fit] | 175
12 | O=C(COC(=O)c1ccccc1O)Nc1cccc(S(=O)(=O)NC2=NCCCCC2)c1 | – | – | 1.39
13 | CCn1cc(Br)c(C(=O)Nc2ccc(F)c(Cl)c2)n1 | – | 0.058 µM [rising, full curve, poor fit] | -12.4
14 | CC(=O)c1ccc(N2CCN(c3ccnc4cc(Cl)ccc34)CC2)cc1 | 9.2 µM [rising, partial curve, poor fit] | 4.61 µM [rising, single point] | 31.6
15 | CCOc1ccc(C(=O)N2CCN(Cc3ccccc3)CC2)cc1 | – | 9.2 µM [rising, partial curve, poor fit] | 2.28
16 | Fc1ccccc1COc1ccc(Br)cc1CNCc1cccnc1 | 0.00461 µM [falling, full curve, poor fit] | – | –
17 | c1ccc(Cn2nnc3c(NCC4CCCO4)ncnc32)cc1 (stereo unspecified) | – | 0.731 µM [rising, partial curve, poor fit] | 1.13
18 | CC(C)CCn1cnc2c(NCc3ccccc3)ncnc21 | 1.84 µM [rising, partial curve] | 0.651 µM [rising, single point] | –
19 | Cc1ccc(-n2c(Cc3cccn3C)nnc2SCC(=O)Nc2ccc3c(c2)OCO3)cc1 | – | 8.2 µM [falling, partial curve, poor fit] | -23
20 | COc1ccc(CCN(C(=O)c2ccco2)C(C(=O)NC2CCCC2)c2ccncc2)cc1OC (stereo unspecified) | – | 29.1 µM [falling, single point] | -20.4

Part of the list above, reduced to cell number change [%] and AC50 [1]:

| Row | SMILES | cell number change [%] | AC50 [1] |
| --- | --- | --- | --- |
| 16 | Fc1ccccc1COc1ccc(Br)cc1CNCc1cccnc1 | – | 0.00461 µM [falling, full curve, poor fit] |
| 17 | c1ccc(Cn2nnc3c(NCC4CCCO4)ncnc32)cc1 (stereo unspecified) | 1.13 | – |
| 18 | CC(C)CCn1cnc2c(NCc3ccccc3)ncnc21 | – | 1.84 µM [rising, partial curve] |

(list continues)

Row | SMILES | AC50 [1] | AC50 [2] | cell number change [%]
21 | COc1ccc(CCNC(=O)CCn2cccc2)cc1OC | – | 14.6 µM [rising, single point] | -0.41
22 | CC(=O)Nc1ccc(S(=O)(=O)NC2CC(=O)N(c3ccc(C)c(C)c3)C2)cc1 (stereo unspecified) | 13 µM [rising, partial curve] | – | 64
23 | CC(C)c1ccc2oc(-c3ccc(NC(=O)c4ncn[nH]4)cc3)nc2c1 | 6.51 µM [rising, single point] | – | –
24 | COc1cc(=O)[nH]c(SC(C)C(=O)Nc2cc(C)on2)n1 (stereo unspecified) | – | 0.651 µM [falling, single point] | -5
25 | O=C(CSc1cccs1)NCCc1ccccc1 | – | 0.116 µM [rising, full curve, poor fit] | –
26 | COc1ccc2cc(C#N)c(Nc3cccc(F)c3)nc2c1 | – | – | 29.5
27 | O=C(COC(=O)Cc1ccccc1[N+](=O)[O-])NNC(=O)c1ccc([N+](=O)[O-])cc1 | – | 23.1 µM [rising, single point] | 18.2
28 | CN1CCc2c(sc(NC(=O)CS(=O)(=O)c3ccccc3)c2C(N)=O)C1 | 0.0731 µM [falling, full curve, poor fit] | – | -6.73
29 | CCC(C)NC(=O)C1CCCN(C(=O)Nc2ccc(F)cc2)C1 (stereo unspecified) | – | – | -0.97
30 | Cc1cc2c(cc1S(=O)(=O)Nc1cccc(C)c1C)n(C)c(=O)c(=O)n2C | – | 1.64 µM [falling, full curve] | –
31 | COc1ccccc1NC(=O)CSc1nc(O)cc(=O)n1-c1ccccc1OC | – | 0.13 µM [rising, full curve, poor fit] | -5.75
32 | COc1ccc(-n2c(C)nc3cc(C(=O)NCCN4CCOCC4)ccc32)cc1 | – | 0.00461 µM [falling, full curve, poor fit] | -7.55
33 | O=C(CN1C(=O)NC2(CCCCC2)C1=O)N1CCN(S(=O)(=O)c2ccc(Cl)s2)CC1 | – | 8.2 µM [rising, partial curve] | 10
34 | Cn1c(Cc2ccccc2)nnc1SCC(=O)Nc1ccc(N2CCOCC2)cc1 | – | – | -8.12
35 | COc1ccccc1NS(=O)(=O)c1cccc(C(=O)N2CCCCCC2)c1 | – | – | 17.3
36 | CCCn1nc(C(=O)Nc2ccc3nc(C)sc3c2)c2ccccc2c1=O | 6.51 µM [falling, single point] | 0.82 µM [rising, full curve, poor fit] | –
37 | Cc1ccc(C)c(N2N=C(C(=O)OCC(=O)N(C)c3ccccc3)CCC2=O)c1 | – | – | -31.3
38 | NC(N)=NC(N)=Nc1cccc2ccccc12 | – | – | 15.4
39 | Cc1cc2c(cc1C)N(C(=O)CSC1=NCCS1)C(C)(C)c1ssc(=S)c1-2 | 16.4 µM [falling, partial curve, poor fit] | 23.1 µM [falling, partial curve] | -66.8
40 | C=CCn1c(SCC(=O)Nc2ccc(C(=O)OCC)cc2)nnc1-c1sc(N)nc1C | – | 1.3 µM [rising, full curve] | -16.4

Row | SMILES | AC50 [1] | AC50 [2] | cell number change [%]
41 | COc1cc(/C=C(\NC(C)=O)C(=O)NC(C)(C)C)ccc1OC(C)=O | 1.46 µM [falling, partial curve] | 1.16 µM [falling, single point] | 0.569
42 | CN(C)c1ccc(/C=C/C(=O)c2ccc3c(c2)OCO3)cc1 | 16.4 µM [falling, single point] | 0.00731 µM [rising, full curve, poor fit] | -32.8
43 | O=C(Cc1ccccc1F)NNC(=O)c1ccncc1 | – | 1.3 µM [falling, partial curve] | 3.47
44 | COc1ccc(-c2cc(=O)oc3cc(OCC(=O)N4C[C@H]5C[C@@H](C4)c4cccc(=O)n4C5)ccc23)cc1 | – | 0.082 µM [falling, full curve, poor fit] | -11.8
45 | COc1ccc(Cl)cc1NC(=S)N1CCN(S(C)(=O)=O)CC1 | – | 29.1 µM [falling, single point] | 0.117
46 | Cc1cc(C(=O)OC2CCOC2=O)c2ccccc2n1 (stereo unspecified) | – | 0.291 µM [falling, partial curve, poor fit] | -17.7
47 | Cc1ccc(C)c(OCC(=O)Nc2cc(NC(=O)COc3cc(C)ccc3C)cc(C(=O)O)c2)c1 | – | – | -22.5
48 | COc1ccc(-c2ccccc2NC(=O)C2CCCN(Cc3ccco3)C2)cc1 (stereo unspecified) | – | – | 19.6
49 | C/C(CC(=O)Nc1ccc(N(C)C)cc1)=N\NC(=O)C(=O)NCc1ccccc1 | 2.31 µM [rising, full curve, poor fit] | 18.4 µM [rising, single point] | 32.9
50 | O=C(CSc1nnc(Cc2ccccc2)o1)N1CCOCC1 | 13 µM [falling, partial curve, poor fit] | – | -32.2
51 | N#C/C(=C\c1ccc(O)c(O)c1)C(=O)NCc1ccccc1 | – | 0.206 µM [falling, full curve, poor fit] | -1.13
52 | O=C(CNC(=O)c1ccco1)N/N=C/c1ccc(C(=O)O)cc1 | – | 0.206 µM [rising, single point] | -15.2
53 | CCC1(c2ccccc2)NC(=O)N(CC(=O)Nc2ccc(N3CCCC3)cc2C)C1=O (stereo unspecified) | 16.4 µM [rising, single point] | 0.0651 µM [rising, full curve, poor fit] | 36.9
54 | O=C(CSc1nnc(-c2ccccc2F)n1CCc1ccccc1)Nc1ccc2[nH]c(=O)[nH]c2c1 | 29.1 µM [rising, single point] | 29.1 µM [rising, single point] | 78.8
55 | O=C1C=C(c2ccc3c(c2)OCO3)C[C@@H](c2ccc3c(c2)OCO3)C1 | – | 23.1 µM [rising, single point] | -0.113
56 | O=C(c1ccccc1Br)N1CCc2c([nH]c3ccccc23)C1 | – | 29.1 µM [rising, single point] | 23.9
57 | CNS(=O)(=O)c1cccc(C(=O)NCC(c2cccs2)N2CCOCC2)c1 (stereo unspecified) | – | 0.00461 µM [rising, full curve, poor fit] | 0.17
58 | CN1CCN(c2cc(-c3cc(O)c4ncccc4c3)ccn2)CC1 | – | 25.9 µM [falling, single point] | -13.6
59 | O=C(O)C1Nc2c(C(=O)N3CCOCC3)cccc2C2C=CCC12 (stereo unspecified) | – | 4.11 µM [falling, full curve] | -23.1
